Laboratory results: publication PMC4747346, “Interaction of RECQ4 and MCM10 is important for efficient DNA replication origin firing in human cells” (Oncotarget, 2015)
These are yes or no findings as the source states them, for the method shown. For part of these data: Binding seen in cells or lysates may run through a third protein. For part of these data: Binding calls can cover weak binding; strength is not graded here. For part of these data: Sequences can lack the tags named with a protein.

Protein sequences, listed by entry. Tags and fused reporters are not part of them. Lines headed by an entry give the natural chain unless they say otherwise; changes in a name come on top.
UniProt O94761: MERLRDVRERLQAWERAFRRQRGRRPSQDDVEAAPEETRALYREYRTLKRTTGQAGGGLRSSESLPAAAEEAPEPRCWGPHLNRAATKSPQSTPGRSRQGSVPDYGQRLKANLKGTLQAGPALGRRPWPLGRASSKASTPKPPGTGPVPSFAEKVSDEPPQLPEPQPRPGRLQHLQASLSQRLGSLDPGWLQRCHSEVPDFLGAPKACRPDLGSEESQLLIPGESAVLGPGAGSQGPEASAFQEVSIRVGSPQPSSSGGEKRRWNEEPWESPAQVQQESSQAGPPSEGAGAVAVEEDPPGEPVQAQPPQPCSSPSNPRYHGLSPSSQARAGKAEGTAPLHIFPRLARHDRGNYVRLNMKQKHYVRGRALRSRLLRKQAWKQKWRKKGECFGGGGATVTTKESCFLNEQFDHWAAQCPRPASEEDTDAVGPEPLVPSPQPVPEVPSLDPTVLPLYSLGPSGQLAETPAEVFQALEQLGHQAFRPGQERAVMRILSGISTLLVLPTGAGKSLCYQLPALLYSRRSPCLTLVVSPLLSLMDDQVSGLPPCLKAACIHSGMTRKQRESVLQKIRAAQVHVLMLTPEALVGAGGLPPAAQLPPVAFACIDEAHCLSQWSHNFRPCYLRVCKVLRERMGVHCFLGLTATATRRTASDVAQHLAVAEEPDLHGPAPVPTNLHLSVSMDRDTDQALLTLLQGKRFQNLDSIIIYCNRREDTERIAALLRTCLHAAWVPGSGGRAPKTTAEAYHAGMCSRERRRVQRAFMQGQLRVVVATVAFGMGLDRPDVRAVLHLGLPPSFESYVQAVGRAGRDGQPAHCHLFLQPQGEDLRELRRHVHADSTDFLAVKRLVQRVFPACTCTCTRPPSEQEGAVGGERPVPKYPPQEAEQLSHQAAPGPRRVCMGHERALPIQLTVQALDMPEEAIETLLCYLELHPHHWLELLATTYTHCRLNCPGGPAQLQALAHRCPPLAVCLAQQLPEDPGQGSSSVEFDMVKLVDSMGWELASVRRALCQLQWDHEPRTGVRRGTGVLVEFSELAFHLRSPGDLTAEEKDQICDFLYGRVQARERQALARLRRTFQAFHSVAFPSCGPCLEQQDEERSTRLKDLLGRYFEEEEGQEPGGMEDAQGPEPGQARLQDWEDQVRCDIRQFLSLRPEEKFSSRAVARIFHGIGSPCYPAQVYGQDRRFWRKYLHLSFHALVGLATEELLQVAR
UniProt Q7Z2Z1: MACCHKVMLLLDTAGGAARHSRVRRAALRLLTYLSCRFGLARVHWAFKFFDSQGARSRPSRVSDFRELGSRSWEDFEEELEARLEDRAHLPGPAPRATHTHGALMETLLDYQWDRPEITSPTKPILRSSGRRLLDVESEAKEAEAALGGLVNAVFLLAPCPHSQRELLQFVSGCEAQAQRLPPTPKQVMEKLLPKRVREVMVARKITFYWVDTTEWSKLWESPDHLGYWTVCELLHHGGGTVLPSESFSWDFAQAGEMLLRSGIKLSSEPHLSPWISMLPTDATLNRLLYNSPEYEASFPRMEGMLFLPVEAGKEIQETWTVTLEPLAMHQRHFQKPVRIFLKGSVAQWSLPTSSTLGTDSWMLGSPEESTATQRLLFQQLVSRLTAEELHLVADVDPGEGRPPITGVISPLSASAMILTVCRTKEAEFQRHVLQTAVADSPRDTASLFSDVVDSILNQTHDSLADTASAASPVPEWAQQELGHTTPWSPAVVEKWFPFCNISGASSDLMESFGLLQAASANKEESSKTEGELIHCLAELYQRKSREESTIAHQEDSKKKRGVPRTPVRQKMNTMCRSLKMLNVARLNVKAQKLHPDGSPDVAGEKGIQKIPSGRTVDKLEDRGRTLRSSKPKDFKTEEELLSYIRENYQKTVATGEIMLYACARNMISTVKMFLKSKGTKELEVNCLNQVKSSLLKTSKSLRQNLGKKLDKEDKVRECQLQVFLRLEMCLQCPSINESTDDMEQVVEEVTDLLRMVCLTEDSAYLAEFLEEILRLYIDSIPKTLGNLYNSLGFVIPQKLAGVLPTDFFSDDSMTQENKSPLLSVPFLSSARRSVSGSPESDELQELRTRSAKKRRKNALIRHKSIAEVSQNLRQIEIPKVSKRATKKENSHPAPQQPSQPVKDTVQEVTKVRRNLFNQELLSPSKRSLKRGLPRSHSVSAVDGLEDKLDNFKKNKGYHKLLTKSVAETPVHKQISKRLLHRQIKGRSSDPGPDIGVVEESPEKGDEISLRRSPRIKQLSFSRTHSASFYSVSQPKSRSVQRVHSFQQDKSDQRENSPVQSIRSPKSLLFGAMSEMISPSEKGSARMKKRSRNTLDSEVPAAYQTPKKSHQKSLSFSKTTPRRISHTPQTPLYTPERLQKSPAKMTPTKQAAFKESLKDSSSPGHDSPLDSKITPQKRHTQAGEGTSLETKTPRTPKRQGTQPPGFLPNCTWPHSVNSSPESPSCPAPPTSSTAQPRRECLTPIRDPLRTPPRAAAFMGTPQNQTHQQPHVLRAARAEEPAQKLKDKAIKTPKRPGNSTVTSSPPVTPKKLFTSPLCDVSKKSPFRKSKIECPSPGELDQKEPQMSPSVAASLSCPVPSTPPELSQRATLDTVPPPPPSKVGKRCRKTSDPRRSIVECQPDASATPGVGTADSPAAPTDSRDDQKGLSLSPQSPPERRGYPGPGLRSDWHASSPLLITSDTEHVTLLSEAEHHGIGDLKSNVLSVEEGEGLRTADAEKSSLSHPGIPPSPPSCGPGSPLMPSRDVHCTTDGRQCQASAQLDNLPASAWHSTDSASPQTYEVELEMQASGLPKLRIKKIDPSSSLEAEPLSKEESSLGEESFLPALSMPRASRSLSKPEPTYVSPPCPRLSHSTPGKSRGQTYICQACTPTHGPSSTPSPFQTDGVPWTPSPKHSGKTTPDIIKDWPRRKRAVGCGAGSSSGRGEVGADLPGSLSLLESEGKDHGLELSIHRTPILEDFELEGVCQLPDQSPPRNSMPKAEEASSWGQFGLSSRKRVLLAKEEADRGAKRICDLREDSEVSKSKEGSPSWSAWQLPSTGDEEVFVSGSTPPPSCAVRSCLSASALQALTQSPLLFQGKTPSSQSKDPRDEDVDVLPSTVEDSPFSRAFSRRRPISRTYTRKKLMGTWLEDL

Tests used:
[1] = target: T1, GST-MCM10 (human) (UniProt Q7L590); test: pull-down; GST or GST-MCM10 on GSH beads (about 1 μg) incubated with purified HIS-RECQ4 (about 1 μg) or purified MBP-RECQ4-HIS fragments in YFP pull-down buffer, 1 h at 4°C; immunoblot for RECQ4; both purified
T1 sequence: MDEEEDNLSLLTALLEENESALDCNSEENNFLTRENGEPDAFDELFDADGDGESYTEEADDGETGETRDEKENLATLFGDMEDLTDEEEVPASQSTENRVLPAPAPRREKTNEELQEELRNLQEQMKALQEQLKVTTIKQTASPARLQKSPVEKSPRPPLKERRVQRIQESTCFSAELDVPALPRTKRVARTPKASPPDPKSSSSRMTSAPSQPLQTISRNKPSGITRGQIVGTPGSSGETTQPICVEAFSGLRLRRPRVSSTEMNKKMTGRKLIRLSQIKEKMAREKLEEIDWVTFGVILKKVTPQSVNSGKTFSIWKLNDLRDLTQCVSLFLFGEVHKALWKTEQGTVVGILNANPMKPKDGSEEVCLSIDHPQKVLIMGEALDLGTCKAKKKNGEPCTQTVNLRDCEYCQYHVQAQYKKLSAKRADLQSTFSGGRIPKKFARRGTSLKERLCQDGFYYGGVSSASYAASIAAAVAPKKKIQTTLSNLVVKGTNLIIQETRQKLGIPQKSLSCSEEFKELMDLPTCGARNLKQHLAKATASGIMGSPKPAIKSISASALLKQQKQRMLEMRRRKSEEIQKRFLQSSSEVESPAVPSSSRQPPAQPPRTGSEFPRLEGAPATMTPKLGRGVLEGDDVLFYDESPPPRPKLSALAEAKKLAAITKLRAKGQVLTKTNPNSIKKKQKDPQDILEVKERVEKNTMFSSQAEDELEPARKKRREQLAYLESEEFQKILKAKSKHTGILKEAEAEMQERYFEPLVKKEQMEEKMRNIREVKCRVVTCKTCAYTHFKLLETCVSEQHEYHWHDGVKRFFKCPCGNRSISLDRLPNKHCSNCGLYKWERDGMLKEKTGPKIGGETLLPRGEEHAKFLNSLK

[2] = target: YFP-RECQ4-ΔID1 (human) (UniProt O94761); test: co-IP; YFP proteins precipitated with GFP-Trap beads from lysates of transiently transfected U2OS cells (asynchronous, hydroxyurea-arrested, HU-released or nocodazole-arrested); pull-down buffer 10 mM Tris pH 7.5, 200 mM KCl, 10% glycerol, 2 mM MgCl2, 0.5 mM DTT, 0.5% NP-40, benzonase; 2 h at 4°C; immunoblot
[3] = target: YFP-RECQ4-ΔFL (human) (UniProt O94761); test: as above

Row | binding [1] | binding [2] | binding [3] | Substance
1 | no binding | – | – | MBP-RECQ4 1-400-HIS with the ΔFL deletion (from UniProt O94761) (domain or fragment)
2 | – | binds | binds | TRESLIN (endogenous, U2OS) (from UniProt Q7Z2Z1 1-1910)
